This is an account of results in patent US9062313B2, “Gem-difluorinated C-isopropylgalactoside derivates” (TFCHEM, priority 2011, dated 2015).

Molecules are shown by their SMILES.

In this data set the test system is BLR(DE3) E. coli expression strain. In words: Bacterial growth during the induction (OD at 600 nm). It is filed as cell-based, Escherichia coli. The following applies: for time from which a concentration effect on bacterial growth was observed: post induction, 0.5 to 0.005 mM.

Regarding `CC(C)C(F)(F)[C@@H]1O[C@H](CO)[C@H](O)[C@H](O)[C@H]1O` [Compound T-18], the “time from which a concentration effect on bacterial growth was observed” value was not below 2 h. In addition, the “bacterial growth, difference between IPTG and T-18 induction” value (same concentration (0.5, 0.1, 0.05, 0.01, 0.005 mM), 37° C., 24 h) is listed as “no differences were observed”.

Take `CC(C)S[C@@H]1O[C@H](CO)[C@H](O)[C@H](O)[C@H]1O` [IPTG, isopropyl-β-D -thiogalactopyranoside, reference compound]: the “time from which a concentration effect on bacterial growth was observed” value is not below 8 h.
